Measurements published in US20100074897A1, “Methods and Compositions related to HIF-1 alpha” (University of Utah Research Foundation, priority 2006, published 2010).
These are yes or no findings as the source states them, for the method shown. Some entries that bind do so weakly or less than the wild type.

The chains behind the UniProt entries cited, without tags or fusion partners. Where a name states a change or a piece, a line headed by the entry shows the natural chain unless it says otherwise. A line that says so, or that is headed by a name, gives the form on record, which may keep a tag or linker. Residues count along the entry.
UniProt P08047, residues 2-785: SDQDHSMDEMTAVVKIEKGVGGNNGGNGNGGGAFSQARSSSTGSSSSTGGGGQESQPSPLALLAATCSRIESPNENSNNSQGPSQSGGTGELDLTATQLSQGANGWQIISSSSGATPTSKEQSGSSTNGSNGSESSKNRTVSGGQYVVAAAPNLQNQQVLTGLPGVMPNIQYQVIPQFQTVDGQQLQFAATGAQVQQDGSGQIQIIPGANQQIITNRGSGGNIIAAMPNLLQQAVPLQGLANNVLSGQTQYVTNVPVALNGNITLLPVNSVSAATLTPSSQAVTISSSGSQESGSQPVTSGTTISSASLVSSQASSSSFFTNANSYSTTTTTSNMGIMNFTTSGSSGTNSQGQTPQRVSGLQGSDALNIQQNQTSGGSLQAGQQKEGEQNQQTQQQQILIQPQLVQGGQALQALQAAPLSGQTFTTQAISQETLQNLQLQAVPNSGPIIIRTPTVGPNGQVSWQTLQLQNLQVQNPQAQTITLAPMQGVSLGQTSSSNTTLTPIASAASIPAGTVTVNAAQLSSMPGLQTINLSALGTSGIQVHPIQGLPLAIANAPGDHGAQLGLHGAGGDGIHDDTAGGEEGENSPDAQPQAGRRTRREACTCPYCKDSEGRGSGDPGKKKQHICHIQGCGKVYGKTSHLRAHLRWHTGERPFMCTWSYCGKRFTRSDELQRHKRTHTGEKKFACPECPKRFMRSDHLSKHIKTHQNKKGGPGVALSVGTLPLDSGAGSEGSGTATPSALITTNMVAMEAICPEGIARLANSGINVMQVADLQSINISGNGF
PAS2B P329T (Q99814, form named): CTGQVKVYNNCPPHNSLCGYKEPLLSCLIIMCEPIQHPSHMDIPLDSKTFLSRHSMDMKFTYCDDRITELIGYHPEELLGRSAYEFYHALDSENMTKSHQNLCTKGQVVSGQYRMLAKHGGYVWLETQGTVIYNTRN

Target: Sp1 of HeLa cells (UniProt P08047)
Assay: cell culture: transfected HeLa cells, anti-Sp1 immunoprecipitation and immunoblot (FIG. 5E)

## PAS2B P329T (from UniProt Q99814 195-331)
  binding: binds
